No constants are given. Whether binding was seen depends on the method and setting. In cells and extracts the contact can be indirect. These calls come from enrichment with a bait or labelling near it, and not all partners need be listed.
Molecular target: HA-Hax1 (UniProt O00165)
Test: affinity purification with mass spectrometry; anti-HA immunocomplexes from HA-Hax1-transfected HEK293T cells, resolved by SDS-PAGE, bands excised, LC-MS/MS

Sequences of proteins named here, by UniProt entry; tags and fusion partners are left off.
UniProt O00165: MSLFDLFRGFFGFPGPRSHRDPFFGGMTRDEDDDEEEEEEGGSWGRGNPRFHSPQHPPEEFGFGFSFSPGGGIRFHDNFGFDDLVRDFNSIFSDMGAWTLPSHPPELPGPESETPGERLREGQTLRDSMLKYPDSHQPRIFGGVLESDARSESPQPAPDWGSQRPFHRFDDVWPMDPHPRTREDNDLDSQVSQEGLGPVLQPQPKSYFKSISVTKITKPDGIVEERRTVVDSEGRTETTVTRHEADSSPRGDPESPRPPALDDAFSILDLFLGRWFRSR
UniProt P46940: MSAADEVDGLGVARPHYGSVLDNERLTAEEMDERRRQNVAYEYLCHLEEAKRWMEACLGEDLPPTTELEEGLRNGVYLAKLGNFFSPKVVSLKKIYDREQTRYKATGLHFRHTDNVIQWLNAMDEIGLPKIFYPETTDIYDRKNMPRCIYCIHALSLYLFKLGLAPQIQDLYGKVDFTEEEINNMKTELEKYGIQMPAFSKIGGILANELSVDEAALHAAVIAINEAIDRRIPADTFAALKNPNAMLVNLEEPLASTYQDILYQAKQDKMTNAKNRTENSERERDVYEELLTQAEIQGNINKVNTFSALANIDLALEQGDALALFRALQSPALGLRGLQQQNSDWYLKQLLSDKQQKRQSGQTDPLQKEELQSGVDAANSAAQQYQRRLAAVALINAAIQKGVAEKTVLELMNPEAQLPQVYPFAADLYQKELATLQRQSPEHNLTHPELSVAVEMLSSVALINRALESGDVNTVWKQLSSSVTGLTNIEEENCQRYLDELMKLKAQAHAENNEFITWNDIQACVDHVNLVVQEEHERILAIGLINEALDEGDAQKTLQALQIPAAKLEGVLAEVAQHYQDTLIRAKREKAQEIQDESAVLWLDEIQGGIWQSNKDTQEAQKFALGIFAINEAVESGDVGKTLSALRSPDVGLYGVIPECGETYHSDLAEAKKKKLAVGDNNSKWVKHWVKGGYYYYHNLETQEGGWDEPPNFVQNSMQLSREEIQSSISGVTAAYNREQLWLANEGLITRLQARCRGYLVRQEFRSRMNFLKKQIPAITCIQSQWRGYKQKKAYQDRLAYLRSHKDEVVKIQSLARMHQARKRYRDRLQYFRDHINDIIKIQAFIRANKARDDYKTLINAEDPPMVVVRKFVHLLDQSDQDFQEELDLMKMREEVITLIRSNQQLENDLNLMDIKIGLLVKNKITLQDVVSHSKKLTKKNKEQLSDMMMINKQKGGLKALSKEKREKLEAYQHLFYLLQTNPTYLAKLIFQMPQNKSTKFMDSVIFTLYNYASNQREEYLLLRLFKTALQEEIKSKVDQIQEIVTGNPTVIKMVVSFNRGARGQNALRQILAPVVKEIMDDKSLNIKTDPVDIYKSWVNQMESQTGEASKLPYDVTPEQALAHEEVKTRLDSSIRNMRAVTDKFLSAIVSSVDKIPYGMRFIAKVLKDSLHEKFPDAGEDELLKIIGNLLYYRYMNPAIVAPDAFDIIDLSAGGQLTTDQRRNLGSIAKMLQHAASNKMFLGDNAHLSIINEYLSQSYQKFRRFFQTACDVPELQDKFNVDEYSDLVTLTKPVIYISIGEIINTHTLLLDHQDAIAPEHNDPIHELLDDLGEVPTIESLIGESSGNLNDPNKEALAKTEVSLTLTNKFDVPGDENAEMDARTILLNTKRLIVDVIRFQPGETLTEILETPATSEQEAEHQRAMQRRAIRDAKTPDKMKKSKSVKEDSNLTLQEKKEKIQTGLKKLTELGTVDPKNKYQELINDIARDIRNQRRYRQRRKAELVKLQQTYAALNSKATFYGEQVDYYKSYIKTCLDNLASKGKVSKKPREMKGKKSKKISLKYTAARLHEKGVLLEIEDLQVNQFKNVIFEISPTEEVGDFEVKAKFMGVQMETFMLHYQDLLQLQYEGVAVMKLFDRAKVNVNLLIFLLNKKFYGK

binding: binds
Substance: IQGAP1 (endogenous) (from UniProt P46940 1-1657)

Source: PMC10364419
